Measured data: PubChem BioAssay AID720505 (Drosophila RNAi Screening Center, 2013)
The screen tested about 20,000 reagents; this is a random part of those that have a named target and a result. In the full data, about 2,100 (10%) were called active. 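Raw plate signals without normalisation; calls rest on control-based scores that were not deposited; replicate 2 separates called from uncalled poorly.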 Unmarked entries are inactive. Reagents against one gene are numbered here. A plus sign joins genes that one reagent is predicted to hit. Not given: the amount of reagent, the time to read-out.

Screen: 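Genes needed for store-operated calcium entry in fly cells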 (primary screen)
System: Drosophila S2R+ cells
Reagents: long dsRNA against Drosophila genes
Treatment: thapsigargin (2 µM) in calcium-free buffer to empty internal stores, then 2 mM calcium added back
Detection: 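Fluo-4 signal in 384-well plates read on a FLIPR after thapsigargin (2 µM, calcium-free) store depletion and 2 mM calcium add-back; unnormalised mean endpoint per well; screen run twice, selected wells retested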
Reading the numbers: calcium signal and retest calcium signal: higher = more calcium entry after store depletion
Rule for the call: 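Knock-downs counted as hits when calcium entry dropped relative to STIM1 positive and Rho1 negative controls present on each plate; roughly 1500 genes called, with reductions of differing size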
Meaning of the calls: active = called as lowering calcium entry; inactive = not called

For dmrt99B #1, the entry reads calcium signal, replicate 1 = 233; calcium signal, replicate 2 = 220.
After knock-down of dmrt99B #2, the screen gave calcium signal, replicate 1 = 115; calcium signal, replicate 2 = 82.2.
Knock-down of IFT46 resulted in: calcium signal, replicate 1 = 69.5; calcium signal, replicate 2 = 122.
Ilp3 showed calcium signal, replicate 1 = 95.6; calcium signal, replicate 2 = 111.
Silencing of HemK1 came out at: calcium signal, replicate 1 = 146; calcium signal, replicate 2 = 203.
Depletion of CG14667 gave: calcium signal, replicate 1 = 124; calcium signal, replicate 2 = 116.
robl37BC gave calcium signal, replicate 1 = 154; calcium signal, replicate 2 = 107.
Depletion of CG1136 gave: calcium signal, replicate 1 = 137; calcium signal, replicate 2 = 84.9.
CG8086 #1 showed calcium signal, replicate 1 = 124; calcium signal, replicate 2 = 244.
Depletion of CG8086 #2 resulted in: calcium signal, replicate 1 = 144; calcium signal, replicate 2 = 150.
For CG14419 the deposit lists calcium signal, replicate 1 = 98; calcium signal, replicate 2 = 127.
Knock-down of CG3894 #1 resulted in: calcium signal, replicate 1 = 85.3; calcium signal, replicate 2 = 4669.
Against CG3894 #2, the entry reads calcium signal, replicate 1 = 71.9 (active); calcium signal, replicate 2 = 79.4.
Against CG3894 #3, the values are calcium signal, replicate 1 = 135; calcium signal, replicate 2 = 146; retest calcium signal, replicate 1 = 94.9; retest calcium signal, replicate 2 = 74.8.
With knock-down of ACXD, the screen gave calcium signal, replicate 1 = 64.9; calcium signal, replicate 2 = 106.
For Sf3b3 the deposit lists calcium signal, replicate 1 = 76.8 (active); calcium signal, replicate 2 = 83.3.
After knock-down of CG14958, the record shows calcium signal, replicate 1 = 58.6; calcium signal, replicate 2 = 117.
Knock-down of Shawn + Tyler #1 gave: calcium signal, replicate 1 = 102; calcium signal, replicate 2 = 89.3.
Silencing of Shawn + Tyler #2 came out at: calcium signal, replicate 1 = 73.5 (active); calcium signal, replicate 2 = 166.
For Lcp65APsi the deposit lists calcium signal, replicate 1 = 172; calcium signal, replicate 2 = 119.
Against tud the deposit lists calcium signal, replicate 1 = 70.8; calcium signal, replicate 2 = 96.5.
CG4218 showed calcium signal, replicate 1 = 132; calcium signal, replicate 2 = 98.5.
With knock-down of CG14229 #1, the screen gave calcium signal, replicate 1 = 77.7; calcium signal, replicate 2 = 103.
After knock-down of CG14229 #2, the record shows calcium signal, replicate 1 = 96.8; calcium signal, replicate 2 = 114.
After knock-down of Gpo1 the results were calcium signal, replicate 1 = 156; calcium signal, replicate 2 = 133.
For l(3)04053, the entry reads calcium signal, replicate 1 = 128; calcium signal, replicate 2 = 109; retest calcium signal, replicate 1 = 135; retest calcium signal, replicate 2 = 120.
After knock-down of CG10341 the results were calcium signal, replicate 1 = 67 (active); calcium signal, replicate 2 = 75.8.
With knock-down of CG17192 the results were calcium signal, replicate 1 = 150; calcium signal, replicate 2 = 178.

2 neighbouring reagents from above:
IFT46 | calcium signal, replicate 1: 69.5; calcium signal, replicate 2: 122
Ilp3 | calcium signal, replicate 1: 95.6; calcium signal, replicate 2: 111
